Assay results reported in publication PMC9609030.
These are yes or no findings as the source states them, for the method shown. Binding seen in cells or lysates may run through a third protein. Some binding calls cover weakened binding; strength is not graded here. Where a sequence is shown, tags or fusion partners need not be part of it.

Key:
[1] = molecular target: T1, UGT1A1 canonical enzyme (human) (UniProt P22309); experiment: co-IP; co-IP with anti-myc (UGT1A1) or control IgG antibodies; blots with anti-UGT1A (RC-71) and anti-Flag (OGDHL)
T1 sequence: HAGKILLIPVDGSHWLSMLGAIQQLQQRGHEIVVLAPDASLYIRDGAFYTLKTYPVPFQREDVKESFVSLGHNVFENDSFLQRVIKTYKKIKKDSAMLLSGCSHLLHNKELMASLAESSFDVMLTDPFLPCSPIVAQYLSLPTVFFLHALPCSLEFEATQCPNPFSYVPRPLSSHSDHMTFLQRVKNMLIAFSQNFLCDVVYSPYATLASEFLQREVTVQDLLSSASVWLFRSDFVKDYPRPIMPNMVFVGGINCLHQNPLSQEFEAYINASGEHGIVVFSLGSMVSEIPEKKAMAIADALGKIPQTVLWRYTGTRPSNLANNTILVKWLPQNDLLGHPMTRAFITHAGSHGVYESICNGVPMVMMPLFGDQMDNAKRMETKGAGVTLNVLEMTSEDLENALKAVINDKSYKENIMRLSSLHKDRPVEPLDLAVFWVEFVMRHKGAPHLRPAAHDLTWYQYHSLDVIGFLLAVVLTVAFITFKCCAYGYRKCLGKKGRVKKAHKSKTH

[2] = molecular target: T2, UGT1A1 isoform 2 (UGT1A1_i2-V5-His), alternative splicing-derived UGT1A1 protein (human) (UniProt P22309); experiment: co-IP; HEK293 cells stably expressing UGT1A1_i2-V5-His and transfected with OGDHL-Myc-DDK; proteins crosslinked with 0.125% paraformaldehyde 10 min 37 °C; lysis in 175 mM Tris-HCl pH 7.4, 150 mM NaCl, 1% Igepal, 1 mM DTT; magnetic beads with goat anti-V5 or control IgG, 2 h 4 °C; blots with anti-V5 and anti-Flag
T2 sequence: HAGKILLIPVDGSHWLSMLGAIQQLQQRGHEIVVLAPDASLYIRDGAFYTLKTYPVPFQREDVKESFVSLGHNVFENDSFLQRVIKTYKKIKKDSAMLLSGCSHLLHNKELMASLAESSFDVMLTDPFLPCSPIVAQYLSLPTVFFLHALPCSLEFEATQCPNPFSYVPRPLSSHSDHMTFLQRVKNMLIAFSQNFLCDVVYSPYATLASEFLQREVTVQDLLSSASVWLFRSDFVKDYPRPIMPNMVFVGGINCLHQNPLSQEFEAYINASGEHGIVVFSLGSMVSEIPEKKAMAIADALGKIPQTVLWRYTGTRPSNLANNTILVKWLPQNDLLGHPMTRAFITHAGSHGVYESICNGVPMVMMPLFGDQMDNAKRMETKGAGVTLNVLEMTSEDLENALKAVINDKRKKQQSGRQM

binding [1]: no binding
binding [2]: binds
B1: oxoglutarate dehydrogenase-like protein (OGDHL-Myc-DDK) (protein, UniProt Q9ULD0 74-1010)
chain: FREASEEAFSGSAQPRPPSVVHESRSAVSSRTKTSKLVEDHLAVQSLIRAYQIRGHHVAQLDPLGILDADLDSFVPSDLITTIDKLAFYDLQEADLDKEFQLPTTTFIGGSENTLSLREIIRRLENTYCQHIGLEFMFINDVEQCQWIRQKFETPGVMQFSSEEKRTLLARLVRSMRFEDFLARKWSSEKRFGLEGCEVMIPALKTIIDKSSEMGIENVILGMPHRGRLNVLANVIRKDLEQIFCQFDPKLEAADEGSGDVKYHLGMYHERINRVTNRNITLSLVANPSHLEAVDPVVQGKTKAEQFYRGDAQGKKVMSILVHGDAAFAGQGVVYETFHLSDLPSYTTNGTVHVVVNNQIGFTTDPRMARSSPYPTDVARVVNAPIFHVNADDPEAVIYVCSVAAEWRNTFNKDVVVDLVCYRRRGHNEMDEPMFTQPLMYKQIHRQVPVLKKYADKLIAEGTVTLQEFEEEIAKYDRICEEAYGRSKDKKILHIKHWLDSPWPGFFNVDGEPKSMTCPATGIPEDMLTHIGSVASSVPLEDFKIHTGLSRILRGRADMTKNRTVDWALAEYMAFGSLLKEGIHVRLSGQDVERGTFSHRHHVLHDQEVDRRTCVPMNHLWPDQAPYTVCNSSLSEYGVLGFELGYAMASPNALVLWEAQFGDFHNTAQCIIDQFISTGQAKWVRHNGIVLLLPHGMEGMGPEHSSARPERFLQMSNDDSDAYPAFTKDFEVSQLYDCNWIVVNCSTPANYFHVLRRQILLPFRKPLIIFTPKSLLRHPEAKSSFDQMVSGTSFQRVIPEDGAAARAPEQVQRLIFCTGKVYYDLVKERSSQDLEEKVAITRLEQISPFPFDLIKQEAEKYPGAELAWCQEEHKNMGYYDYISPRFMTILRRARPIWYVGRDPAAAPATGNRNTHLVSLKKFLDTAFNLQAFEGKTF
